Assay results from article PMC8881469, “Molecular recognition of formylpeptides and diverse agonists by the formylpeptide receptors FPR1 and FPR2” (Nature Communications, 2022).
No constants are given. Whether binding was seen depends on the method and setting. Some binding calls cover weakened binding; strength is not graded here.

Amino acid sequences for entries named in this document (tags omitted). Residues count along the entry.
UniProt P21462, residues 1-333: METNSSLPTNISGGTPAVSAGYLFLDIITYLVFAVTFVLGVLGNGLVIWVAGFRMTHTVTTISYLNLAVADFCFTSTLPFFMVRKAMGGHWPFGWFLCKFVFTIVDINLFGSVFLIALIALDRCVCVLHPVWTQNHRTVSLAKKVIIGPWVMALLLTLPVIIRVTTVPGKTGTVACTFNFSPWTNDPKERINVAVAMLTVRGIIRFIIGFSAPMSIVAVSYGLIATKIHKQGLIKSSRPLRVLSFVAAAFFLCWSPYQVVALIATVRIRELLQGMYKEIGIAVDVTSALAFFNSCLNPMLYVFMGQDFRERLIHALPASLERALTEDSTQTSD
UniProt P25090, residues 1-342: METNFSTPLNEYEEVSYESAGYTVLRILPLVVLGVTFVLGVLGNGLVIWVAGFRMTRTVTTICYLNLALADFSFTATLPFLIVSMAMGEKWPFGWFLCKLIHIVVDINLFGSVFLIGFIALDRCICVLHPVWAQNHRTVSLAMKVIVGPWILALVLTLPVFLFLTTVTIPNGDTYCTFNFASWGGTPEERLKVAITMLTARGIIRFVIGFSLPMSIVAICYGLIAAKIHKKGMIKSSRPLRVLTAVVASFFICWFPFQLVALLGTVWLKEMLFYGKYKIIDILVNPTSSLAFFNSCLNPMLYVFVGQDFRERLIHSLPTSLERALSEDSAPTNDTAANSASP

What was measured:
[1] = biological target: human formylpeptide receptor FPR1 (residues 1-333), cryo-EM construct (human) (UniProt P21462); assay: cryo-EM structure; fMLFII-FPR1-Gi-scFv16 complex; 10 μM fMLFII added to the suspension of Sf9 cells that express FPR1 and Gi, 5 μM kept in all buffers; 3.2 Å; only the binder purified
[2] = biological target: human formylpeptide receptor FPR2 (residues 1-342), cryo-EM construct (human) (UniProt P25090); assay: cryo-EM structure; FPR2-Gi-scFv16 complexes; 10 μM fMLFII or 20 μM CGEN-855A added to the suspension of Sf9 cells that express FPR2 and Gi, 5 μM kept in all buffers; 3.1 and 2.9 Å; only the binder purified

MLFII (N-formyl methionine at the N-terminus (fMet1)) [fMLFII]
binding [1]: binds | binding [2]: binds
